Laboratory results: publication doi:10.1101/2024.09.30.615974
These are yes or no findings as the source states them, for the method shown. Binding seen in cells or lysates may run through a third protein. Some binding calls cover weakened binding; strength is not graded here. Where a sequence is shown, tags or fusion partners need not be part of it.

Tests used:
[1] = target: T1, AtSAP5 fused with the N terminus of luciferase (Arabidopsis) (UniProt Q9LHJ8); experiment: split reporter
T1 sequence: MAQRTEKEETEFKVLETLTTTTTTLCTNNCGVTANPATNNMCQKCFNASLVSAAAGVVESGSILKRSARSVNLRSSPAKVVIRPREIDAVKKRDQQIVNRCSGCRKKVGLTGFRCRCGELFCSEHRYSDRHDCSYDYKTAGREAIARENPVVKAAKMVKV

[2] = target: T2, AtSAP5 fused with the C terminus of yellow fluorescent protein (Arabidopsis) (UniProt Q9LHJ8); experiment: split reporter
T2 sequence: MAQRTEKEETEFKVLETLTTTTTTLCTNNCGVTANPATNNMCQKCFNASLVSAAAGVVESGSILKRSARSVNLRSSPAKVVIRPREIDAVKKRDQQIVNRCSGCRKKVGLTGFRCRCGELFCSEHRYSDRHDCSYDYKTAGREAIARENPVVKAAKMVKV

B1: CAT2 fused with the C terminus of luciferase (enzyme, UniProt P25819 1-492)
chain: MDPYKYRPASSYNSPFFTTNSGAPVWNNNSSMTVGPRGPILLEDYHLVEKLANFDRERIPERVVHARGASAKGFFEVTHDISNLTCADFLRAPGVQTPVIVRFSTVIHERGSPETLRDPRGFAVKFYTREGNFDLVGNNFPVFFIRDGMKFPDMVHALKPNPKSHIQENWRILDFFSHHPESLNMFTFLFDDIGIPQDYRHMDGSGVNTYMLINKAGKAHYVKFHWKPTCGVKSLLEEDAIRVGGTNHSHATQDLYDSIAAGNYPEWKLFIQIIDPADEDKFDFDPLDVTKTWPEDILPLQPVGRMVLNKNIDNFFAENEQLAFCPAIIVPGIHYSDDKLLQTRVFSYADTQRHRLGPNYLQLPVNAPKCAHHNNHHEGFMNFMHRDEEVNYFPSRYDQVRHAEKYPTPPAVCSGKRERCIIEKENNFKEPGERYRTFTPERQERFIQRWIDALSDPRITHEIRSIWISYWSQADKSLGQKLASRLNVRPSI
- binding [1]: binds

B2: CAT2 fused with the N terminus of YFP (enzyme, UniProt P25819 1-492)
chain: MDPYKYRPASSYNSPFFTTNSGAPVWNNNSSMTVGPRGPILLEDYHLVEKLANFDRERIPERVVHARGASAKGFFEVTHDISNLTCADFLRAPGVQTPVIVRFSTVIHERGSPETLRDPRGFAVKFYTREGNFDLVGNNFPVFFIRDGMKFPDMVHALKPNPKSHIQENWRILDFFSHHPESLNMFTFLFDDIGIPQDYRHMDGSGVNTYMLINKAGKAHYVKFHWKPTCGVKSLLEEDAIRVGGTNHSHATQDLYDSIAAGNYPEWKLFIQIIDPADEDKFDFDPLDVTKTWPEDILPLQPVGRMVLNKNIDNFFAENEQLAFCPAIIVPGIHYSDDKLLQTRVFSYADTQRHRLGPNYLQLPVNAPKCAHHNNHHEGFMNFMHRDEEVNYFPSRYDQVRHAEKYPTPPAVCSGKRERCIIEKENNFKEPGERYRTFTPERQERFIQRWIDALSDPRITHEIRSIWISYWSQADKSLGQKLASRLNVRPSI
- binding [2]: binds
